Data published in article PMC7772359.
These are yes or no findings as the source states them, for the method shown. In cells and extracts the contact can be indirect. Some binding calls cover weakened binding; strength is not graded here.

By UniProt entry, the sequences of proteins in these tests, tags left out.
UniProt Q61221: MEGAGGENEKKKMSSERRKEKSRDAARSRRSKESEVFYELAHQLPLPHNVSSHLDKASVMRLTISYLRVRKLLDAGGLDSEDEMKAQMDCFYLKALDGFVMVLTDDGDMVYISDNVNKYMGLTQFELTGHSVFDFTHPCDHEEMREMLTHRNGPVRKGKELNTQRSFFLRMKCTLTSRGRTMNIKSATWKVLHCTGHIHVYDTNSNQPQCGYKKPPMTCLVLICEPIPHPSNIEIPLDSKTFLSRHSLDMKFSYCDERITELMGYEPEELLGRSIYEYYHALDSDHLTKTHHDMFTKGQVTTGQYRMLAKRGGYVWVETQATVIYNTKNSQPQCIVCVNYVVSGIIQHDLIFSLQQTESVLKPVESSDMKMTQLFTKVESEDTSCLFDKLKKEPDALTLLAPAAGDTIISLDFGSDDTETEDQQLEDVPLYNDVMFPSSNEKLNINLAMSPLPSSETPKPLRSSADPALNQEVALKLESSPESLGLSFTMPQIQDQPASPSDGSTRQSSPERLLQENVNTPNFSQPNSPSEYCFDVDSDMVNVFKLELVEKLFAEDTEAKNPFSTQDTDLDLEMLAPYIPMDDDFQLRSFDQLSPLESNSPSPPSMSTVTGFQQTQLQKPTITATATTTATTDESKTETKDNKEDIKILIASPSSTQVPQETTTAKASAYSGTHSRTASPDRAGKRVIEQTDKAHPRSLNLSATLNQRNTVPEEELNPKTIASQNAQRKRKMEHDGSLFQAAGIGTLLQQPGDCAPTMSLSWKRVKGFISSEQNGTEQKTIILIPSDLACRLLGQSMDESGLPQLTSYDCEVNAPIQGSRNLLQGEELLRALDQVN
UniProt Q6P5H2: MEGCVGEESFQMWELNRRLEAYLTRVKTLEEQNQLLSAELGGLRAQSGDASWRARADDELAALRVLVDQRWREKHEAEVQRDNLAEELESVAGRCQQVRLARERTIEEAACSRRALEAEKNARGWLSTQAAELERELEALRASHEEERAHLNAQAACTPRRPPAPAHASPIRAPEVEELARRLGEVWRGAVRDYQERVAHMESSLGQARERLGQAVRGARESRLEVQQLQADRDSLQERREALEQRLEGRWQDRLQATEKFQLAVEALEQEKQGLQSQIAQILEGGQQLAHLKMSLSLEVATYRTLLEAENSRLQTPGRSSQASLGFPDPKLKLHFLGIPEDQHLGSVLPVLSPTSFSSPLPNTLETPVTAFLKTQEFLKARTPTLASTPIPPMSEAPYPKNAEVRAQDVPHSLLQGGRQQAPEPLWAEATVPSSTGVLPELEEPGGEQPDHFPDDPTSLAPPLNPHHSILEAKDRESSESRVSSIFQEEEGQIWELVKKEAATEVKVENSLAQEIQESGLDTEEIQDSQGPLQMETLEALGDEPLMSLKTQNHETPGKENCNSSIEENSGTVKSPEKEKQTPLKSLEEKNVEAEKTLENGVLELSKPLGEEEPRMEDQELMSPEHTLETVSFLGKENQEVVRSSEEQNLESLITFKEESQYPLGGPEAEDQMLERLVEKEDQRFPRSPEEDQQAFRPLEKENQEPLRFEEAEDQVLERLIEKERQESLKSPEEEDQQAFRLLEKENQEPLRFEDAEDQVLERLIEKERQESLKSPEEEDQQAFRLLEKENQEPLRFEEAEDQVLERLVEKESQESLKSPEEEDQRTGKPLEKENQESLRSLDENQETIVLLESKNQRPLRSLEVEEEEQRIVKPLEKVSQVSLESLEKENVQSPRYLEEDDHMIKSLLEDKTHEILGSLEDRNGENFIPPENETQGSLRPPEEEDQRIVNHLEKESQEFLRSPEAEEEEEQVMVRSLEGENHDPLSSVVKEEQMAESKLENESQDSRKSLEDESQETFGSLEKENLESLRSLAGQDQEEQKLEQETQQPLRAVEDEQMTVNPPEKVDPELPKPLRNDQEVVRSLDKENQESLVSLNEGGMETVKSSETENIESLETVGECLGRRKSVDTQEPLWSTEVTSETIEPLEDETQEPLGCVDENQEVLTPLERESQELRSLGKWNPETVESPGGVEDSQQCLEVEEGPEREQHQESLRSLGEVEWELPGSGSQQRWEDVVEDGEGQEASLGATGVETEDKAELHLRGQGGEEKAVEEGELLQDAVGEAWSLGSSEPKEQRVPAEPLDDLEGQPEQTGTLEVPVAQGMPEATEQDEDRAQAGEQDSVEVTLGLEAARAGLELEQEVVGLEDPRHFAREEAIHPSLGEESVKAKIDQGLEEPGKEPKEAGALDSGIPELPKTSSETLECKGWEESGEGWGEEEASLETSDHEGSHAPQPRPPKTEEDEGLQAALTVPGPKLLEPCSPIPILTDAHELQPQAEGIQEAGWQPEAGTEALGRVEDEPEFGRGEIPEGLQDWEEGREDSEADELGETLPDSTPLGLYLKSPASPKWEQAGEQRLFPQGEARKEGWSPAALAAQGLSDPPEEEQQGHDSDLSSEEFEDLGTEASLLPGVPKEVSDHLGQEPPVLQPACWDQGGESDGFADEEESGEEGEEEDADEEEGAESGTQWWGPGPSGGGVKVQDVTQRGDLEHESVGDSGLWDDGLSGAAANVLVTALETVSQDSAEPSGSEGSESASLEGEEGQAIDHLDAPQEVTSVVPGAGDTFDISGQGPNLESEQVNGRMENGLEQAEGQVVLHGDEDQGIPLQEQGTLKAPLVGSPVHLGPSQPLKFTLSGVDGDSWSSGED

Biological target: HIF1-α (mouse (endogenous in Nes+ cells of Nestin-GFP mice)) (UniProt Q61221)
Assay: co-IP; reciprocal: endogenous proteins from Nes+ cell lysates precipitated with anti-HIF1-α antibody; Pierce IP lysis buffer with protease inhibitors, overnight at 4°C, Dynabeads Protein G 1 h, immunoblot

- binding: binds
Substance: Nestin (from UniProt Q6P5H2 1-1864)
